Experimental data as given in the supplement of paper PMC11732987, “Enantioselective OTUD7B fragment discovery through chemoproteomics screening and high-throughput optimisation” (Communications Chemistry, 2025).
Some of the results follow. The data scatter; read single values as rough.

Protein sequences, listed by entry. Tags and fused reporters are not part of them. Lines headed by an entry give the natural chain unless they say otherwise; changes in a name come on top. Residues count along the entry.
UniProt Q8N1B4, 101-125: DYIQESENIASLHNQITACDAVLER
UniProt Q99592: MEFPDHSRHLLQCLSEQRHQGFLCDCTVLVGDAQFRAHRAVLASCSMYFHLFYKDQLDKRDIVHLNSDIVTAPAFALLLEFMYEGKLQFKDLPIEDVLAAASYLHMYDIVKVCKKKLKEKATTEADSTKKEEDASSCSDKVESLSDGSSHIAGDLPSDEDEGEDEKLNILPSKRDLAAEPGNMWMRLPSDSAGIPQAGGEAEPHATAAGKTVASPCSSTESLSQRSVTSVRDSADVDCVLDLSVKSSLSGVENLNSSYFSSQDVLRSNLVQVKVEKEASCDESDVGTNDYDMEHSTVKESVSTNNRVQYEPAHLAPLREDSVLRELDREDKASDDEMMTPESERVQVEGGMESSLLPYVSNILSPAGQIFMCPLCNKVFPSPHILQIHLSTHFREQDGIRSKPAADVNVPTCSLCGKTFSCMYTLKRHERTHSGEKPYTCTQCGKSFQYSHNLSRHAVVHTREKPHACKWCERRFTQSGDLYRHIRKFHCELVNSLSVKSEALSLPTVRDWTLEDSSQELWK
UniProt Q12768: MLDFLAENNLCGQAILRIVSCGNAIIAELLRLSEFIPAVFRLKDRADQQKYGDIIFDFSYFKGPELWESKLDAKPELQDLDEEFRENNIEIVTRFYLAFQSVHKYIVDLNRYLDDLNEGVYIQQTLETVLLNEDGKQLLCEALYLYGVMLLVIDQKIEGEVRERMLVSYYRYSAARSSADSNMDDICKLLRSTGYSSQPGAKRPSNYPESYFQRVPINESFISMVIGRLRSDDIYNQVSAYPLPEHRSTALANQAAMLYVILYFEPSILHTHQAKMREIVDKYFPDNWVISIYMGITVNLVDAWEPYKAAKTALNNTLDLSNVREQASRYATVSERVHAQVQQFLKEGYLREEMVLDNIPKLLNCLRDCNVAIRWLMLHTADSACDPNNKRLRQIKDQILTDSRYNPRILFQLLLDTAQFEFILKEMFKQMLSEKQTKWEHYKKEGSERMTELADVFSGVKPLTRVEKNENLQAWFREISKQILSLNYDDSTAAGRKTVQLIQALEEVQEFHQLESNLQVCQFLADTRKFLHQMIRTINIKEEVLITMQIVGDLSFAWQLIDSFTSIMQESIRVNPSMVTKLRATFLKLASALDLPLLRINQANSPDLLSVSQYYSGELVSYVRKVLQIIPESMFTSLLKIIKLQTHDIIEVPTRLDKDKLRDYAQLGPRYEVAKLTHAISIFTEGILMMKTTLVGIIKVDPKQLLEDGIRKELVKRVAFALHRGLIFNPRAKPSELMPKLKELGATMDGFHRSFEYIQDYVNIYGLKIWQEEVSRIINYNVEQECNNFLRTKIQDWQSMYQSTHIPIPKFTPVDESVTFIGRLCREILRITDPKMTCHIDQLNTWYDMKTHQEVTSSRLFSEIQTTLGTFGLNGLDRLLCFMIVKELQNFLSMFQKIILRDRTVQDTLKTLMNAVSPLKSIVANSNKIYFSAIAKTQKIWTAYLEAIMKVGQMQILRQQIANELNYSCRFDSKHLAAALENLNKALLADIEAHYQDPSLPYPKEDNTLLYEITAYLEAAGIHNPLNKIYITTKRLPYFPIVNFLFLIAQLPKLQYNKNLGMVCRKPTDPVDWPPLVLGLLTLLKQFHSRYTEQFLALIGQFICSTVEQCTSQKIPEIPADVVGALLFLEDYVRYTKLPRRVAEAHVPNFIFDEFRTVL
UniProt Q9NZC7: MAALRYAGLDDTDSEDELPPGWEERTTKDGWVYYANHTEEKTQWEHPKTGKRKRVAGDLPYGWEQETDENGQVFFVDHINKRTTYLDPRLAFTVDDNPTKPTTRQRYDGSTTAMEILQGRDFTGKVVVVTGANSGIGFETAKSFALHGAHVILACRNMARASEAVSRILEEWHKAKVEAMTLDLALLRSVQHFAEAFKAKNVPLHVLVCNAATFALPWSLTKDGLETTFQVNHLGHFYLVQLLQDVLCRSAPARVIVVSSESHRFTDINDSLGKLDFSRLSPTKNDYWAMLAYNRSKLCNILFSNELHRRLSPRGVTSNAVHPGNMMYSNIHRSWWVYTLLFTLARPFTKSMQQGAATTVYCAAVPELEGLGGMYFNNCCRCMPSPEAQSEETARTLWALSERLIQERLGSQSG
UniProt Q14191: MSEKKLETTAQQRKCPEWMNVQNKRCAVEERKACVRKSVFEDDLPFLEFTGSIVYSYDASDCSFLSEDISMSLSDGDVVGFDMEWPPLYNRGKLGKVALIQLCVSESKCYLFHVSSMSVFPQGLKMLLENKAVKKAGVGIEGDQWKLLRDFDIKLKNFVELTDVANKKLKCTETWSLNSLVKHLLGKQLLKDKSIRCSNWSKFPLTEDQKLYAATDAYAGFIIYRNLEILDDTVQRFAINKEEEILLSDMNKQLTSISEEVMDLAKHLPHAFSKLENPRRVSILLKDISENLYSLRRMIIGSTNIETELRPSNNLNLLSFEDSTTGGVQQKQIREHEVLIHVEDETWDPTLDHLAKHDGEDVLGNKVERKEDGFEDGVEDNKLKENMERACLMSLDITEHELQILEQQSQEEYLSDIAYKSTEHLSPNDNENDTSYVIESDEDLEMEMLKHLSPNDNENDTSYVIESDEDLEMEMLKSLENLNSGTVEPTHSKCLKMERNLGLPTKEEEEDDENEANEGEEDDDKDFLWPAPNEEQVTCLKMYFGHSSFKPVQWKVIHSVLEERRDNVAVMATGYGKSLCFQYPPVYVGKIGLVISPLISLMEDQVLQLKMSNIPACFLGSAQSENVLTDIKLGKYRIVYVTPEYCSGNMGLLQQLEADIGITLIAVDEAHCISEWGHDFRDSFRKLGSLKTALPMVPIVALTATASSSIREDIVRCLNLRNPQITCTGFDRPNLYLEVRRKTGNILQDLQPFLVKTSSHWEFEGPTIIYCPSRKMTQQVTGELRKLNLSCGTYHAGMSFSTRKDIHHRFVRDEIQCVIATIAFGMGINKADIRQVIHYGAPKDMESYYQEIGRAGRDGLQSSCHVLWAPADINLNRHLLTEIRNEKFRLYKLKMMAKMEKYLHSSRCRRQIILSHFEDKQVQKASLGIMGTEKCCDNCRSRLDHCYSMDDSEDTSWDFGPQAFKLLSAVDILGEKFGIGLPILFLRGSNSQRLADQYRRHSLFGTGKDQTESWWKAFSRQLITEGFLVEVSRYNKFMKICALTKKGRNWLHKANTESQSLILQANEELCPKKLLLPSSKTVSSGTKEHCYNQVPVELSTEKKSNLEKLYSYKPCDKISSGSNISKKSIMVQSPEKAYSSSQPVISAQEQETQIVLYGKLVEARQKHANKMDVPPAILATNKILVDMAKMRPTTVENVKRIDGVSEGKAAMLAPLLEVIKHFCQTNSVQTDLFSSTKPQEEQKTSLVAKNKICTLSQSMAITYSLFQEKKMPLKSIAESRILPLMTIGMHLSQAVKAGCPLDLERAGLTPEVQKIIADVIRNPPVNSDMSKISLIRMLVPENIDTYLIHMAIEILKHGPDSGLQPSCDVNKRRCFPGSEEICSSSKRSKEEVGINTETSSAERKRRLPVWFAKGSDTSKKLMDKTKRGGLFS
UniProt Q8NI36: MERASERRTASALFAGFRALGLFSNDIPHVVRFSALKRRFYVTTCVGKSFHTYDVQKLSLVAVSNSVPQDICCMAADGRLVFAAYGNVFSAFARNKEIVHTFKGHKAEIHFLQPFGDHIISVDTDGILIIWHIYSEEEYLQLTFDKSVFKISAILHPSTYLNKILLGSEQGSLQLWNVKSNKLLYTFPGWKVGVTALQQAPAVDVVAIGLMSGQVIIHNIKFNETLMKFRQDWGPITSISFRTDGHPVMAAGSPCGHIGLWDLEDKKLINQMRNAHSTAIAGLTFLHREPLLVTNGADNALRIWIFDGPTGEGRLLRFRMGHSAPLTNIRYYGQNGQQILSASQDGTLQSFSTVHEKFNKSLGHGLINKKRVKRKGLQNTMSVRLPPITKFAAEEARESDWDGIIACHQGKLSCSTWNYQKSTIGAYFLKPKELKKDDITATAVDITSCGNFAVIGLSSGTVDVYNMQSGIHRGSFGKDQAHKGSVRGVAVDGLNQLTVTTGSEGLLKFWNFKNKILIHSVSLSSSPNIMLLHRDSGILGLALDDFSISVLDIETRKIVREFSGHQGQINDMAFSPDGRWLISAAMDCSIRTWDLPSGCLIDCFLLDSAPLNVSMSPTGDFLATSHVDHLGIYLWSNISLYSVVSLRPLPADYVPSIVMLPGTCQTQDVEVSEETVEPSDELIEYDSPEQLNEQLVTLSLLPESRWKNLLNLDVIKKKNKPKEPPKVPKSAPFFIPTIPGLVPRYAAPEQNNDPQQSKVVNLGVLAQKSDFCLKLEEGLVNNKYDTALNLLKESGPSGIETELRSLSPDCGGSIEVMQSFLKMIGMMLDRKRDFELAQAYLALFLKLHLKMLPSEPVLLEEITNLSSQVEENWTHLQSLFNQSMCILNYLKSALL
UniProt Q7Z5K2, 951-970: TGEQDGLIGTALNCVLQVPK
UniProt Q96JC1: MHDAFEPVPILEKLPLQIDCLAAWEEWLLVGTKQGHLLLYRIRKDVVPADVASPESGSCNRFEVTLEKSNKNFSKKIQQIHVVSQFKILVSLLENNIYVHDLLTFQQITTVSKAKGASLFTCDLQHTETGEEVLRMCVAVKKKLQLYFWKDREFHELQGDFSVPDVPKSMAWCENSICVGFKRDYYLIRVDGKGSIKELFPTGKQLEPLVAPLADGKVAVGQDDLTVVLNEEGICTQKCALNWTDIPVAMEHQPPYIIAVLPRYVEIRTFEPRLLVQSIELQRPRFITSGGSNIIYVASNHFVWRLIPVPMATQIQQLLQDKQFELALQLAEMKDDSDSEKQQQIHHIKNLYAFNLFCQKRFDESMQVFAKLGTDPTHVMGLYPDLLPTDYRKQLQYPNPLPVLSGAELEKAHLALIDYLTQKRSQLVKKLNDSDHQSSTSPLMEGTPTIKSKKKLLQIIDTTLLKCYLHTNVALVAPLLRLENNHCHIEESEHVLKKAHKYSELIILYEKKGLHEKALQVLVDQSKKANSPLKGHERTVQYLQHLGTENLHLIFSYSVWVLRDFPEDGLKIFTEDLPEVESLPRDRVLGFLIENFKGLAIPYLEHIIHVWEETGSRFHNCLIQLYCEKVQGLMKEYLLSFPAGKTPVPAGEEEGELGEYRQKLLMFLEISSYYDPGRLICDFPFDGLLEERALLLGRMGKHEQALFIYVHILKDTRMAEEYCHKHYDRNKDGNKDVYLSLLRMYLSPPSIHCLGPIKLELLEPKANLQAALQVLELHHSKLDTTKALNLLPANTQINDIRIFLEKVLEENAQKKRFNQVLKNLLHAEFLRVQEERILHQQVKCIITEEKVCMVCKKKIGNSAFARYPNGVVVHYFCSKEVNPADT
UniProt Q9Y2I8: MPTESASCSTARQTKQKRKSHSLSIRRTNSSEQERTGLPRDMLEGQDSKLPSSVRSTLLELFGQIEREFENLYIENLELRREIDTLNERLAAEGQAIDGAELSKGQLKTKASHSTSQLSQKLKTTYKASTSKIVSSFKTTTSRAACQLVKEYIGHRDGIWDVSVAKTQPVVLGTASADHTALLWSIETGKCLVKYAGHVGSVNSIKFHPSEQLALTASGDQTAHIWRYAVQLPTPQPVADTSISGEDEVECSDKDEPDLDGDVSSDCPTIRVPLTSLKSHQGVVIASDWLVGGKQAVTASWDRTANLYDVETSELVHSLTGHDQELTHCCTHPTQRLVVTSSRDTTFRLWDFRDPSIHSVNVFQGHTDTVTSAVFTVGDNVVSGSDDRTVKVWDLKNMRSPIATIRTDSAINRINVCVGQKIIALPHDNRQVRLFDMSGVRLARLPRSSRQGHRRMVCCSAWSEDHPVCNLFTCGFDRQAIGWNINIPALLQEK
UniProt P30291: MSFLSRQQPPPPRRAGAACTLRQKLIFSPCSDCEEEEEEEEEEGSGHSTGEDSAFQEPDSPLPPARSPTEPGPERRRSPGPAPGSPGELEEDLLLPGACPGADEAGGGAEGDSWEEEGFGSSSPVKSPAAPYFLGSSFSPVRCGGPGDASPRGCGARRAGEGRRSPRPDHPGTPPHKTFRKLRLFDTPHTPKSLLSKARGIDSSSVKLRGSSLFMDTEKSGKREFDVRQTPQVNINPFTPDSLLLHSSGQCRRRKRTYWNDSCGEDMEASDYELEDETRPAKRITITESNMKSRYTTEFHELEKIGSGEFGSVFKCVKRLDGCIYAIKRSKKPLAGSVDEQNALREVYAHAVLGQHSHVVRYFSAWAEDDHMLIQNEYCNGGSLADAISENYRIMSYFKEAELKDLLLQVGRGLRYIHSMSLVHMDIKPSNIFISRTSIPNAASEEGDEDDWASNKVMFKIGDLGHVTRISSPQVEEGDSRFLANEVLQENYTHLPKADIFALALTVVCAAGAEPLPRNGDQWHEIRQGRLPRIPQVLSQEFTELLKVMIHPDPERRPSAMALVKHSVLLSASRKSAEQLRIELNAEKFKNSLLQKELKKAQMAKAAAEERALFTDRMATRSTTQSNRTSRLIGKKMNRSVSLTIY

compound: ClCC(=O)N[C@@H]1CCCc2ccccc12; assay: log2 mean competition ratio of IA-DTB cysteine labelling (DMSO/compound) (log2 ratio); higher = stronger cysteine engagement by compound; conditions: 50 µM; treatment time: 4 h; cell line lysate: HEK293T
Protocol: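 IA-DTB competitive cysteine chemoproteomics in HEK293T RIPA lysate. Lysates were treated with compound 29 or 30 at 50 or 200 µM for 4 h, then IA-DTB (500 µM, 1 h), trypsin-digested, NeutrAvidin-enriched and analysed by diaPASEF. Competition ratio = intensity DMSO / intensity compound (n=4 treated, n=64 DMSO); binding: mean log2 CR ≥ 1 and p ≤ 0.05 plus QC filters. Target is the cysteine site.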

Target	log2 mean competition ratio
WASHC4 C344 (UniProt Q2M389)	-0.164
WDR62 C647 (UniProt O43379)	-0.019
VPS52 C119 (UniProt Q8N1B4)	0.29
YTHDF3;YTHDF1 C439;(C412)	-0.0256
WDHD1 C773 (UniProt O75717)	0.578
XPR1 C62 (UniProt Q9UBH6)	-0.102
ZBTB18 C216 (UniProt Q99592)	0.0505
WASHC5 C1064 (UniProt Q12768)	0.0585
VPS51 C485 (UniProt Q9UID3)	0.0632
WWOX C382 (UniProt Q9NZC7)	0.0824
WDR46 C515	-0.316
WDFY3 C896 (UniProt Q8IZQ1)	-0.195
WRN C1367 (UniProt Q14191)	-0.0621
WDR36 C463 (UniProt Q8NI36)	-0.34
WAPL C964 (UniProt Q7Z5K2)	-0.236
WDR43 C380 (UniProt Q15061)	0.0368
VPS39 C844 (UniProt Q96JC1)	0.0378
WDR37 C8 (UniProt Q9Y2I8)	0.147
VWA8 C724 (UniProt A3KMH1)	0.202
WEE1 C143 (UniProt P30291)	0.281

same assay, conditions: 200 µM; treatment time: 4 h; cell line lysate: HEK293T

Target	log2 mean competition ratio
WASHC4 C344 (UniProt Q2M389)	0.0734
WDR62 C647 (UniProt O43379)	0.0711
VPS52 C119 (UniProt Q8N1B4)	-0.0705
YTHDF3;YTHDF1 C439;(C412)	-0.158
WDHD1 C773 (UniProt O75717)	0.225
XPR1 C62 (UniProt Q9UBH6)	-0.0387
ZBTB18 C216 (UniProt Q99592)	-0.168
WASHC5 C1064 (UniProt Q12768)	-0.0925
VPS51 C485 (UniProt Q9UID3)	0.0535
WWOX C382 (UniProt Q9NZC7)	-0.0213
WDR46 C515	-0.051
WDFY3 C896 (UniProt Q8IZQ1)	0.247
WRN C1367 (UniProt Q14191)	0.0841
WDR36 C463 (UniProt Q8NI36)	0.0415
WAPL C964 (UniProt Q7Z5K2)	0.0691
WDR43 C380 (UniProt Q15061)	-0.171
VPS39 C844 (UniProt Q96JC1)	-0.182
WDR37 C8 (UniProt Q9Y2I8)	-0.198
VWA8 C724 (UniProt A3KMH1)	-0.0301
WEE1 C143 (UniProt P30291)	0.202
